The results in this text go back to doi:10.1101/726521.

Amino acid sequences for entries named in this document (tags omitted).
UniProt Q39128: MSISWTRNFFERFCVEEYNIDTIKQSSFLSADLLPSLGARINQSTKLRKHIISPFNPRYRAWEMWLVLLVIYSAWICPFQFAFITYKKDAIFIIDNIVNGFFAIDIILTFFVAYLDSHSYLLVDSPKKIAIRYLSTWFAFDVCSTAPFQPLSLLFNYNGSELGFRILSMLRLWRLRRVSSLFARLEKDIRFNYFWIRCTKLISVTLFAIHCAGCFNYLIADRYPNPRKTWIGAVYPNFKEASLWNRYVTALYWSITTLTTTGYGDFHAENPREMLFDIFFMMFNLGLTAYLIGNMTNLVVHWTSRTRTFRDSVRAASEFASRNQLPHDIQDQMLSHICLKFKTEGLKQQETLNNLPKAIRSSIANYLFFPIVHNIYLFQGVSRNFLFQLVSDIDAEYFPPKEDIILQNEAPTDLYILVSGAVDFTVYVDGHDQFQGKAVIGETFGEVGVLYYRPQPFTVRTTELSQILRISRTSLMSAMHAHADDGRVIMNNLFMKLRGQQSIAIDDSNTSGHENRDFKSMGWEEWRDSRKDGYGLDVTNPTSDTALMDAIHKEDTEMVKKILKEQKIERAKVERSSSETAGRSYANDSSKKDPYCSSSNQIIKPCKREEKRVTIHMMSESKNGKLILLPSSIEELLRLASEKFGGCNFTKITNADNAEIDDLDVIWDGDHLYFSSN

In assay [1] the target is MSL10^S640L_(553-734), soluble C-terminus of MSL10 with the S640L lesion, split-ubiquitin fusion (Arabidopsis thaliana) (UniProt Q9LYG9). Put plainly: two-hybrid.
For assay [2], the target named is MSL10_(461-734), C-terminal half of MSL10, split-ubiquitin fusion (Arabidopsis thaliana) (UniProt Q9LYG9). Kind of assay: two-hybrid.
The target in assay [3] is MSL10^S640L_(461-734), C-terminal half of MSL10 with the S640L lesion, split-ubiquitin fusion (Arabidopsis thaliana) (UniProt Q9LYG9). Put plainly: two-hybrid.
Assay [4] deals with MSL10_(553-734), soluble C-terminus of MSL10, split-ubiquitin fusion (Arabidopsis thaliana) (UniProt Q9LYG9). Kind of assay: two-hybrid.
The target of assay [5] is MSL10^S640L_(553-734), soluble C-terminus of MSL10 with the S640L lesion (BiFC fusion) (Arabidopsis thaliana) (UniProt Q9LYG9). Kind of assay: split reporter.
For assay [6], the target named is MSL10_(553-734)-YN, soluble C-terminus of MSL10 (BiFC fusion) (Arabidopsis thaliana) (UniProt Q9LYG9). Put plainly: split reporter.
For assay [7], the target named is MSL10_(1-164)-YC, soluble N-terminus of MSL10 (BiFC fusion) (Arabidopsis thaliana) (UniProt Q9LYG9). Kind of assay: split reporter.
In assay [8] the target is MSL10 (MscS-Like 10), split-ubiquitin fusion (Arabidopsis thaliana) (UniProt Q9LYG9). Kind of assay: two-hybrid.
In assay [9] the target is MSL10-YN / MSL10-YC (BiFC fusion) (Arabidopsis thaliana) (UniProt Q9LYG9). Kind of assay: split reporter.
In assay [10] the target is T1, MSL10_(1-164)-YC, soluble N-terminus of MSL10 (BiFC fusion) (Arabidopsis thaliana), Q9LYG9.
T1 chain: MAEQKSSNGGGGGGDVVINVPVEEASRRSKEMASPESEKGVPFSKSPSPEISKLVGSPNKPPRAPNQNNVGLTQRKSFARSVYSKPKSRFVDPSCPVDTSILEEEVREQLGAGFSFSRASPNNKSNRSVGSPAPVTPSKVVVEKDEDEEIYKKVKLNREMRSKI
Put plainly: split reporter. To be noted: remark: other sources report otherwise.

These are yes or no findings as the source states them, for the method shown. For some of these results: Binding seen in cells or lysates may run through a third protein. Some binding calls cover weakened binding; strength is not graded here. For some of these results: Where a sequence is shown, tags or fusion partners need not be part of it.

For the molecule “MSL10_(1-460), N-terminal half of MSL10, split-ubiquitin fusion (from UniProt Q9LYG9 1-460) (domain or fragment)”, the binding entry in assay [1], in [2], in assay [3] and in assay [4] was “binds” in each case.

Regarding “MSL10_(1-460)-YC, N-terminal half of MSL10 (BiFC fusion) (from UniProt Q9LYG9 1-460) (domain or fragment)”, the binding result in assay [5] and in [6] was “binds” in each case.

With “MSL10_(1-164)-YC, soluble N-terminus of MSL10 (BiFC fusion) (from UniProt Q9LYG9 1-164) (domain or fragment)”, the binding entry in assay [5] and in assay [6] was “binds” each time.

Turning to “KAT1 (BiFC fusion) (from UniProt Q39128 1-677)”, the binding entry in assay [5], in assay [6] and in assay [7] was “no binding” throughout.

As for “MSL10 (MscS-Like 10), split-ubiquitin fusion (from UniProt Q9LYG9 1-734)”, the binding entry in assay [8] is “binds”.

“KAT1, split-ubiquitin fusion (from UniProt Q39128 1-677)”: the binding result in assay [8] is on record as “no binding”.

Regarding “MSL10_(1-164), soluble N-terminus of MSL10, split-ubiquitin fusion (from UniProt Q9LYG9 1-164) (domain or fragment)”, the binding result in assay [2] and in assay [3] was “binds” in each case.

Regarding “MSL10_(553-734)-YN, soluble C-terminus of MSL10 (BiFC fusion) (from UniProt Q9LYG9 553-734) (domain or fragment)”, the binding entry in assay [6] was “no binding”.

Turning to “MSL10-YN / MSL10-YC (BiFC fusion) (from UniProt Q9LYG9 1-734)”, in [9], the binding result is on record as “binds”.

B1: MSL9, split-ubiquitin fusion (protein, UniProt Q84M97 1-742)
chain: MAERRVSNGEEVVINVSDKEDSKDPRASPSFNPLASPDSDAGIEKSKPVPPISIPTPEIYKFSGSVHKPPKIPSPEGLVRRKSLSRSIYSKPKSRFGEQQSFRYDSTREENGGRSLREQFGAGSFARGSFDRASPNNKSNRSVASAALSKVAEEEPDENEEIYKKVKLHRVKRSGMKPLAFLELVVFMAILGALIVSLTIDVVNKHTIWGLEFWKWCVLVMVTLSGMLVTNWFMHFVVFIIEKNYLLRKKVLYFVHGLKKNVQVFIWFSLVLIAWICLFDGDVKRTRKTKRFLDFITWTIVSLLVGSILFLVKTFALKVLASKFNVRNFFERIQESVFHQYVLQTLSGPPLIEEAENVGRVPSTGHLSFTRTKDGKVKDKKVIDMGKVHRMKQEKVSAWTMRVLIEAVGTSGISTISSTLDEVNNKKERTDKEITNEMEAVAAAYDVFNNVAKPNHNYIEEDDLLRFMIKEEVDLVLPLIEDADTGKITRKTFTEWVVNVYTSRKTIGHSLNDTKTAVKQLDKLITGILTVITFIVWMVLLDIASTKLLLVFSSQFLGLAFMIGSTCKNIFESFMFVFVMHPYDVGDRCVVDGVMLLVEEIDLLTTVFLKIDNEKVFYPNSVLISKPISNFYRSPDMGDYVDFGIAFSTPAEKIGCLKGKIGEYLVANSQHWYPEAQVMVRAIENMNKLVLNILVQHTINFQVYVEKSLRRTALIIAIKRILEDLEIDYTLLPQDVNLTGHK
With B1, the binding result in [8] is “no binding”.

B2: MSL9 (BiFC fusion) (protein, UniProt Q84M97 1-742)
chain: MAERRVSNGEEVVINVSDKEDSKDPRASPSFNPLASPDSDAGIEKSKPVPPISIPTPEIYKFSGSVHKPPKIPSPEGLVRRKSLSRSIYSKPKSRFGEQQSFRYDSTREENGGRSLREQFGAGSFARGSFDRASPNNKSNRSVASAALSKVAEEEPDENEEIYKKVKLHRVKRSGMKPLAFLELVVFMAILGALIVSLTIDVVNKHTIWGLEFWKWCVLVMVTLSGMLVTNWFMHFVVFIIEKNYLLRKKVLYFVHGLKKNVQVFIWFSLVLIAWICLFDGDVKRTRKTKRFLDFITWTIVSLLVGSILFLVKTFALKVLASKFNVRNFFERIQESVFHQYVLQTLSGPPLIEEAENVGRVPSTGHLSFTRTKDGKVKDKKVIDMGKVHRMKQEKVSAWTMRVLIEAVGTSGISTISSTLDEVNNKKERTDKEITNEMEAVAAAYDVFNNVAKPNHNYIEEDDLLRFMIKEEVDLVLPLIEDADTGKITRKTFTEWVVNVYTSRKTIGHSLNDTKTAVKQLDKLITGILTVITFIVWMVLLDIASTKLLLVFSSQFLGLAFMIGSTCKNIFESFMFVFVMHPYDVGDRCVVDGVMLLVEEIDLLTTVFLKIDNEKVFYPNSVLISKPISNFYRSPDMGDYVDFGIAFSTPAEKIGCLKGKIGEYLVANSQHWYPEAQVMVRAIENMNKLVLNILVQHTINFQVYVEKSLRRTALIIAIKRILEDLEIDYTLLPQDVNLTGHK
In the case of B2, the binding result in [5], in [6] and in assay [7] was “no binding” each time.

B3: MSL10_(1-164)-YC, soluble N-terminus of MSL10 (BiFC fusion), Q9LYG9 1-164 (domain or fragment)
chain: MAEQKSSNGGGGGGDVVINVPVEEASRRSKEMASPESEKGVPFSKSPSPEISKLVGSPNKPPRAPNQNNVGLTQRKSFARSVYSKPKSRFVDPSCPVDTSILEEEVREQLGAGFSFSRASPNNKSNRSVGSPAPVTPSKVVVEKDEDEEIYKKVKLNREMRSKI
B3: in assay [10], the binding entry was “no binding”.
